The values below come from PMC3973350.

By UniProt entry, the sequences of proteins in these tests, tags left out.
UniProt Q13111: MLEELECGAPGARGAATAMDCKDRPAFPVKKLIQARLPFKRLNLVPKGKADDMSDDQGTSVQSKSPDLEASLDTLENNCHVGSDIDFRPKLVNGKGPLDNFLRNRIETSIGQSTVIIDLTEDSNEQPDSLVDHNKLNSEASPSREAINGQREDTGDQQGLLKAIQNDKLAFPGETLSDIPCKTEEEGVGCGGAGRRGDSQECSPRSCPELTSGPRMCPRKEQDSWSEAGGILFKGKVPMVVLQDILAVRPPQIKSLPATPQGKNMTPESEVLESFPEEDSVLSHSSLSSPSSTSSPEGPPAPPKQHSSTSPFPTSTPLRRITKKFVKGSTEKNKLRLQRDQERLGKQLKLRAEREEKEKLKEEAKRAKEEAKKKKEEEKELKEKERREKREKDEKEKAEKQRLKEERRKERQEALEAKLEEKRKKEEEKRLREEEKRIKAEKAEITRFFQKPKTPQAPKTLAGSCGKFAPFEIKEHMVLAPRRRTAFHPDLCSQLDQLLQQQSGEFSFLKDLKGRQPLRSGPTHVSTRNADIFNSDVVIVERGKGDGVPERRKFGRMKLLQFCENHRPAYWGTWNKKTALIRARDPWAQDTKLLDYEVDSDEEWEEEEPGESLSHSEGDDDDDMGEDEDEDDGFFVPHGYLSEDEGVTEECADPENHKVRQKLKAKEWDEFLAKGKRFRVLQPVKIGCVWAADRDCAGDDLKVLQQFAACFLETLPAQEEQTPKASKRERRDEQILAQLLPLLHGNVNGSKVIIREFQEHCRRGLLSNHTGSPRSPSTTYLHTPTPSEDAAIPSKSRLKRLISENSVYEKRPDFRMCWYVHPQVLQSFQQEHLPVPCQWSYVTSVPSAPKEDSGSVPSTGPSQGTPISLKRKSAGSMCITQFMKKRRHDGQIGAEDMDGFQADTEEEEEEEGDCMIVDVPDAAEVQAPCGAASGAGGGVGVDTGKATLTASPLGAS
UniProt Q9NVP2: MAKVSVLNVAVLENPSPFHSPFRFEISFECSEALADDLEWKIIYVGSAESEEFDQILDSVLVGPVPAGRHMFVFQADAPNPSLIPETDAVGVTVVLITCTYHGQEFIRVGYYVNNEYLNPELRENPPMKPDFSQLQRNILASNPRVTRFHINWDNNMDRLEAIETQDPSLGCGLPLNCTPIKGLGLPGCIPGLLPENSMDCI

These are yes or no findings as the source states them, for the method shown. Binding seen in cells or lysates may run through a third protein. Some results given as binding are weak or reduced against the parent protein; the word gives no strength.

The target of experiment [1] is chromatin associated factor-1 (CAF-1) p150 subunit (human (endogenous in HeLa S3)) (UniProt Q13111). Briefly: co-IP; Flag-IP of eH3.2 from nuclear extract, Flag peptide elution; second IP with anti-CAF-1 p150, eluted with specific peptide; unbound CAF-1-depleted material re-immunoprecipitated with anti-HA, HA peptide elution; western blot. On the technique in general: Immunoblotting shows a protein as a band on a membrane.

Experiment [2] addresses mini chromosome maintenance protein 2 (MCM2) (human (endogenous in HeLa S3)) (UniProt P49736). Briefly: co-IP; sequential IP (ReIP): Flag-purified material from S3-eH3.2 subjected to a second IP with antibody to MCM2, CAF-1 p150 or Asf1a; input, IP and flow-through immunoblotted.
Experiment [3] deals with anti-silencing factor 1 isoform a (Asf1a) (human (endogenous in HeLa S3)) (UniProt Q9Y294). Described as above.

As to “anti-silencing factor 1 isoform a (Asf1a) (from UniProt Q9Y294 1-204)”, in experiment [1], the binding result is “no binding”.
On to “anti-silencing factor 1 isoform b (Asf1b) (from UniProt Q9NVP2 1-202)”, for which the binding entry in experiment [2] is reported as “binds”; in experiment [3], “no binding”.
For the substance “chromatin associated factor-1 (CAF-1) p150 subunit (from UniProt Q13111 1-956)”, the binding result in experiment [3] is recorded as “no binding”.
